Source: patent publication US20180171012A1
These are yes or no findings as the source states them, for the method shown. Some results given as binding are weak or reduced against the parent protein; the word gives no strength. Blank lines part the entries; values can stand above or below the binder they belong to.

How the values were obtained:
[1] = biological target: recombinant monkey TfR (r monkey TfR: Sino Biological Inc.), cynomolgus monkey TfR extracellular region with N-terminal histidine tag (cynomolgus monkey (Macaca fascicularis)); test: BLI, Octet RED96
[2] = biological target: recombinant human TfR (r human TfR: Sino Biological Inc.), hTfR extracellular region with N-terminal histidine tag (human) (UniProt P02786); test: BLI, Octet RED96
[3] = biological target: TfR existing on the endothelium of blood vessels in the brain of cynomolgus monkeys (printed as hTfR) (cynomolgus monkey (Macaca fascicularis)); test: immunohistochemistry (IgG detection antibody, DAB, hematoxylin) of frozen cerebellum sections of a cynomolgus monkey 8 h after one intravenous dose of 5.0 mg/kg [c]
[4] = biological target: TfR existing on the endothelium of blood vessels in the brain of cynomolgus monkeys (printed as hTfR) (cynomolgus monkey (Macaca fascicularis)); test: immunohistochemistry (IgG detection antibody, DAB, hematoxylin) of frozen hippocampus sections of a cynomolgus monkey 8 h after one intravenous dose of 5.0 mg/kg [c]
[5] = biological target: TfR existing on the endothelium of blood vessels in the brain of cynomolgus monkeys (printed as hTfR) (cynomolgus monkey (Macaca fascicularis)); test: immunohistochemical staining of monkey brain after intravenous administration
[6] = biological target: TfR existing on the endothelium of blood vessels in the brain of cynomolgus monkeys (printed as hTfR) (cynomolgus monkey (Macaca fascicularis)); test: immunohistochemistry (IgG detection antibody, DAB, hematoxylin) of frozen cerebral cortex sections of a cynomolgus monkey 8 h after one intravenous dose of 5.0 mg/kg [c]
[7] = biological target: TfR existing on the endothelium of blood vessels in the brain of cynomolgus monkeys (printed as hTfR) (cynomolgus monkey (Macaca fascicularis)); test: immunohistochemistry (IgG detection antibody, DAB, hematoxylin) of frozen cerebellum sections of a cynomolgus monkey 8 h after one intravenous dose of 5.0 mg/kg [b]
[8] = biological target: TfR existing on the endothelium of blood vessels in the brain of cynomolgus monkeys (printed as hTfR) (cynomolgus monkey (Macaca fascicularis)); test: immunohistochemistry (IgG detection antibody, DAB, hematoxylin) of frozen hippocampus sections of a cynomolgus monkey 8 h after one intravenous dose of 5.0 mg/kg [b]
[9] = biological target: TfR existing on the endothelium of blood vessels in the brain of cynomolgus monkeys (printed as hTfR) (cynomolgus monkey (Macaca fascicularis)); test: immunohistochemistry (IgG detection antibody, DAB, hematoxylin) of frozen cerebral cortex sections of a cynomolgus monkey 8 h after one intravenous dose of 5.0 mg/kg [b]

binding [1]: binds
binding [2]: binds
B1: humanized anti-hTfR antibody No. 1 (antibody, human IgG1, kappa, V domains shown)
VH: EVQLVESGGGLVQPGGSLRLSCAASGLTFSNYGMSWVRQAPGKGLELVANINTNGGSTYYPDSVKGRFTISRDNAKNSLYLQMNSLRAEDTAVYYCTNNRYDEDYWGQGTLVTVSS
VL: DIQVTQSPSFLSASVGDRVTITCKASQDVNSAVAWFQQKPGKAPKLLIYWTSTRHTGVPDRFSGSGSGTVYTLTISSLQPEDFATYYCQQHYSTPRTFGGGTKVEIKR

binding [5]: binds
B2: anti-hTfR antibody No. 2 (antibody, V domains shown)
VH: EVQLQESGAELVRPGVSVKISCKGSGYTFTDYVMHWVRQSHAKSLEWIGVISTYYGHGSYNQRFKGKATMTVDKSSSTAYLELVRLTSEDSAIYYCVRGGYGSSSLAGNFDVWGAGTTVTVSS
VL: DIVLTQSPATLSVTPGDSVSLSCRASQSISNNLQWYQQKSHESPRLLIKYASQSISGIPSRFSGSGSGTDFTLSINSVETEDFGMYFCQQSNSWPRTFGAGTKLELKR
binding [3]: binds
binding [4]: binds
binding [6]: binds

binding [5]: binds
B3: anti-hTfR antibody No. 1 (antibody, V domains shown)
VH: EVQLQESGGGLVQPGGSLKLSCAASGLTFSNYGMSWIRQTPDKRLELVANINTNGGSTYYPDSVKGRFTISRDNAKNTLYLQMNSLKSEDTAIYYCTNNRYDEDYWGQGTSVTVSS
VL: DIVLTQSSKFMSTSVGDRVSITCKASQDVNSAVAWFQQKPGQSPKLLIYWTSTRHTGVPDRFTGSGSGTVYTLTISSVQAEDLALYYCQQHYSTPRTFGGGTKLEIKR
binding [7]: binds
binding [8]: binds
binding [9]: binds
